Assay results reported in PubChem BioAssay AID2685 (National Center for Advancing Translational Sciences (NCATS), 2010).
The list shows a part of the results. Shown are side measurements of this screen, not its main read-out; they come without a call. Compounds called inactive in the main read-out are mostly missing here. The note in brackets gives the kind of curve behind each potency; many fits are weak. Where a SMILES comes first, the peptide text is derived from it. The star is where a group is joined. Boc = CC(C)(C)OC(=O)*; OtBu = CC(C)(C)O*

Experiment: qHTS Assay for Lipid Storage Modulators in Drosophila S3 Cells;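 as to cell number change: cells counted by Cell Tracker Red CMTPX staining in the red channel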
Settings: BODIPY lipid droplet fluorescence, 18-24 h; for cell number change: measured here: cell count max response, cells fed with added oleic acid
Outline: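 Drosophila S3 cells got compounds at several concentrations plus oleic acid (400 uM solution). Laser-scanning cytometry with 488 nm excitation read lipid droplets at 500-530 nm and cells at 575-640 nm. Percent activity was relative to 20 uM Triacsin C.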

[1] = measured here: lipid fluorescence (Fed channel) AC50, cells fed with added oleic acid
[2] = measured here: cell number channel AC50, cells fed with added oleic acid

Structure (SMILES)	cell number change [%]	AC50 [1]	AC50 [2]
COc1ccc(NS(=O)(=O)c2c(C)n(C)c(=O)n(C)c2=O)cc1	26.8	0.58 µM [rising, full curve]	–
COc1ccccc1Nc1nc(Cl)c(C=O)s1	49.8	–	29.1 µM [rising, single point]
Cc1ccc(C)c(NC(=O)COC(=O)c2cccc(S(=O)(=O)N3CCCCC3)c2)c1	-1.6	–	–
COc1ccc(C(CNC(=O)CCNS(=O)(=O)c2ccc(Br)cc2)N2CCCC2)cc1 (stereo not drawn)	-10.7	–	–
O=C(C1CCN(S(=O)(=O)N2CCC3(CC2)OCCO3)CC1)N1CCOCC1	15.5	–	–
COc1ccc(-c2oc3ccc(-c4cc(OC)c(OC)c(OC)c4)cc3c2C#Cc2ccsc2)cc1	58.3	–	25.9 µM [rising, partial curve]
Clc1ccc(OCc2nn3c(C4CCCCC4)nnc3s2)c(Cl)c1	79	–	23.1 µM [rising, partial curve]
COc1ccc(-c2csc(NC(=O)c3ccc(S(C)(=O)=O)cc3)n2)cc1	14.2	0.0103 µM [rising, full curve, poor fit]	–
Cn1c(=O)c2c(SCc3c(F)cccc3Cl)nc(CC(C)(C)C)nc2n(C)c1=O	31.1	–	2.59 µM [rising, full curve]
CCN1C(=O)c2cccc3c(S(=O)(=O)NCCc4c[nH]c5ccccc45)ccc1c23	–	6.51 µM [rising, single point]	–
CC(=O)Nc1ccc(S(=O)(=O)N2CCN(c3ncccn3)CC2)cc1	0.293	0.0651 µM [rising, full curve, poor fit]	–
COc1cc2cc(CN(Cc3cccs3)C(=S)Nc3cccc(C)c3)c(=O)[nH]c2cc1OC	12.2	5.8 µM [rising, partial curve]	–
COc1ccc(SC[C@H](C)CN2CC[C@H](C(C)(C)C)CCC2=O)cc1	-27.4	0.259 µM [falling, full curve, poor fit]	0.092 µM [falling, full curve, poor fit]
N#Cc1ccc(NC(=O)CCc2ccc(S(=O)(=O)N3CCOCC3)cc2)cc1	7.98	–	0.00461 µM [rising, full curve, poor fit]
Cc1cccc(C)c1NC(=O)/C(C#N)=C/c1ccsc1	-18.1	18.4 µM [falling, single point]	–
CN1C(=O)/C(=C/c2ccccc2OCc2ccc(C(=O)O)cc2)NC1=S	-40.7	–	–
COc1ccccc1C(CNC(=O)C(CCSC)NS(=O)(=O)c1ccccc1F)N1CCCC1 (stereo not drawn)	-9.19	–	–
COC(=O)C1=C(C)NC(=S)NC1c1ccc(OCC(=O)N2CCCCC2)c(OC)c1 (stereo not drawn)	-0.587	–	–
Cc1ccc(C(C)C)c(OCCCn2ccnc2C)c1	3.23	29.1 µM [rising, single point]	–
CCN1CCN(Cc2c(OC)ccc3ccccc23)CC1	-33.6	7.31 µM [falling, partial curve, poor fit]	0.461 µM [falling, full curve, poor fit]

Random excerpt: three records from the list, in no set order.
Structure (SMILES)	cell number change [%]	AC50 [1]	AC50 [2]
N#Cc1ccc(NC(=O)CCc2ccc(S(=O)(=O)N3CCOCC3)cc2)cc1	7.98	–	0.00461 µM [rising, full curve, poor fit]
COc1ccc(-c2oc3ccc(-c4cc(OC)c(OC)c(OC)c4)cc3c2C#Cc2ccsc2)cc1	58.3	–	25.9 µM [rising, partial curve]
CN1C(=O)/C(=C/c2ccccc2OCc2ccc(C(=O)O)cc2)NC1=S	-40.7	–	–

Carrying on.

Structure (SMILES)	cell number change [%]	AC50 [1]	AC50 [2]
CC(C)(C)OC(=O)N1CCN(C(=O)c2nc[nH]c2C(=O)N2CCN(C(=O)OC(C)(C)C)CC2)CC1	8.1	0.326 µM [rising, full curve, poor fit]	–
NCC(O)CN(c1ccccc1)c1ccccc1 (stereo not drawn)	-28.4	29.1 µM [falling, single point]	–
CN(C)c1ccc(CN2CCCCC2)cc1	–	0.651 µM [falling, full curve, poor fit]	–
COc1ccc(NC2CCCN(C(=O)c3ccc(CSC)o3)C2)cc1OC (stereo not drawn)	-32.5	–	8.2 µM [falling, partial curve]
CC(Sc1nnc(COc2ccc(Cl)cc2)n1Cc1ccco1)C(=O)N1CCNC1=O (stereo not drawn)	-6.48	18.4 µM [rising, single point]	–
COc1cc(CC(=O)NC(c2ccccc2)c2ccccc2)cc(OC)c1OC	11.7	1.46 µM [rising, full curve]	–
Cc1cc(NC(=O)CCC(=O)N(Cc2ccco2)C(C(=O)NC2CCCC2)c2ccc(F)cc2)no1 (stereo not drawn)	0.435	6.51 µM [rising, single point]	–
Cc1cc(OCC(=O)N2CCN(c3ncccn3)CC2)ccc1Cl	22.8	–	0.259 µM [rising, partial curve, poor fit]
COc1ccc(/C=N/NC(=O)c2nn(-c3ccc(Cl)cc3)c(=O)c3c(N)scc23)cc1	44.5	–	–
Clc1ccc(-c2c[n+](Cc3ccc(Br)cc3)c3n2CCCCC3)cc1	-27.2	18.4 µM [falling, single point]	–
CCn1cc(C2C3=C(CC(C)(C)CC3=O)N(c3ccccc3)C3=C2C(=O)CC(C)(C)C3)c(C)n1	24.7	0.103 µM [falling, full curve, poor fit]	–
CCOc1ccc(NC(=O)c2ccc(NC(=O)c3cn4c5c(c(N6CCN(C)CC6)c(F)cc5c3=O)OCC4C)cc2)cc1 (stereo not drawn)	19.7	32.6 µM [rising, single point]	–
COc1ccc(CNS(=O)(=O)c2cc3c(cc2Cl)NC(=O)CO3)cc1	5.76	29.1 µM [rising, single point]	–
CC(C)CCOc1ccc(C(CC(N)=O)C(=O)O)cc1 (stereo not drawn)	-3.23	0.731 µM [falling, full curve]	0.58 µM [falling, single point]
COc1ccc(OCCC(=O)OCC(=O)NC2CCCCCCC2)cc1	137	–	29.1 µM [rising, partial curve, poor fit]
CC(C)(C)NC(=O)C(c1cccs1)N(C(=O)c1csnn1)c1cccc(F)c1 (stereo not drawn)	-7.02	0.259 µM [falling, partial curve, poor fit]	–
Cc1ccccc1C(=O)O/N=C(\N)Cc1cccs1	26.5	–	–
Cc1cc(-c2ccccc2)nc2cc(C(N)=O)nn12	15.7	5.8 µM [rising, partial curve]	–
COC(=O)C(Cc1ccc(O)cc1)NC(=O)C(CC(=O)OC(C)(C)C)NC(=O)OC(C)(C)C (stereo not drawn) (Boc-Asp(OtBu)-Tyr-OMe; configuration not given here)	-19.2	8.2 µM [falling, partial curve]	–
COc1ccccc1N(CC(O)Cn1ccnc1C)S(=O)(=O)c1ccccc1 (stereo not drawn)	-36.2	–	29.1 µM [falling, single point]

Structure (SMILES)	cell number change [%]	AC50 [1]	AC50 [2]
O=C(CSc1nc2ccc([N+](=O)[O-])cc2s1)NCC1CCCO1 (stereo not drawn)	-21.9	6.51 µM [falling, single point]	–
Cc1cc(C)cc(NC(=S)N(CCN(C)C)C(C)c2cccnc2)c1 (stereo not drawn)	38.3	–	29.1 µM [rising, single point]
CCCn1nc(NC(=O)C(C)C)c2cc3cc(OC)ccc3nc21	-9.91	0.58 µM [falling, single point]	–
COc1cc(/C=N/NC(=S)NC(C)C)ccc1OCC(=O)Nc1c(C)cc(C)cc1C	18.8	29.1 µM [rising, single point]	–
CCOC(=O)c1cccc(NC(=O)CSc2nnc(COc3ccccc3)n2CC)c1	-38.3	29.1 µM [falling, partial curve, poor fit]	23.1 µM [falling, single point]
Cc1sc(NC(=O)COc2ccccc2)c(C#N)c1-c1ccccc1	18.4	29.1 µM [rising, partial curve, poor fit]	–
O=C(CCCN1C(=O)c2cccc3cccc(c23)C1=O)N1CCN(Cc2ccc3c(c2)OCO3)CC1	49.9	–	–
O=C1Nc2ccccc2N(O)N1c1cc(-c2ccccc2)[nH]n1	39.3	–	–
CN(C)c1ccc(C(C#N)c2ccccc2)nn1 (stereo not drawn)	18.7	0.651 µM [rising, full curve, poor fit]	–
O=C(N/N=C/c1ccc(-c2ccccc2[N+](=O)[O-])o1)c1cccnc1	84.5	0.291 µM [rising, full curve]	10.3 µM [rising, partial curve]
O=C1C2C3C=CC(C3)C2C(=O)N1c1cccc(-c2nc3ccccc3o2)c1 (stereo not drawn)	5.31	4.11 µM [rising, partial curve, poor fit]	–
CC(=O)Nc1ccc(S(=O)(=O)N2CCN(S(=O)(=O)N3CCC(C)CC3)CC2)cc1	22.7	20.6 µM [falling, single point]	–
CCCCSc1nc2c(cc1C#N)CCC2	216	–	16.4 µM [rising, partial curve]
N#C/C(=C\c1ccc(-c2ccc(C(=O)O)cc2)o1)C(=O)Nc1ccc(F)cc1	128	–	29.1 µM [rising, single point]
Cc1ccn2c(=O)nc(SCC(=O)Nc3cccc4ccccc34)nc2c1	55.8	–	29.1 µM [rising, single point]
CCn1cnc2sc(C(=O)N3CCN(Cc4ccc5c(c4)OCO5)CC3)c(C)c2c1=O	23.6	29.1 µM [rising, single point]	–
COc1ccc(C(=O)OCC(=O)Nc2ccc3[nH]c(=O)[nH]c3c2)cc1	5.72	29.1 µM [rising, single point]	–
CSc1nc2nc3c(cn2n1)C(=O)CC(c1ccccc1)C3 (stereo not drawn)	40.5	2.31 µM [rising, full curve]	6.51 µM [rising, partial curve, poor fit]
CC(C)(C)NC(=O)C1Cc2ccccc2CN1S(=O)(=O)c1ccc(F)cc1 (stereo not drawn)	-10.5	–	0.0651 µM [rising, full curve, poor fit]
COc1ccc(CCNC(=O)CCCCn2c(=O)[nH]c3ccccc3c2=O)cc1OC	-20.6	–	–
